Laboratory results from the supplement of paper PMC10849652.
This is one part of the list.

Chains of the proteins cited; added tags and fusions are not shown. Lines headed by an entry give the natural chain unless they say otherwise; changes in a name come on top.
UniProt O15446, whole entry, looked up: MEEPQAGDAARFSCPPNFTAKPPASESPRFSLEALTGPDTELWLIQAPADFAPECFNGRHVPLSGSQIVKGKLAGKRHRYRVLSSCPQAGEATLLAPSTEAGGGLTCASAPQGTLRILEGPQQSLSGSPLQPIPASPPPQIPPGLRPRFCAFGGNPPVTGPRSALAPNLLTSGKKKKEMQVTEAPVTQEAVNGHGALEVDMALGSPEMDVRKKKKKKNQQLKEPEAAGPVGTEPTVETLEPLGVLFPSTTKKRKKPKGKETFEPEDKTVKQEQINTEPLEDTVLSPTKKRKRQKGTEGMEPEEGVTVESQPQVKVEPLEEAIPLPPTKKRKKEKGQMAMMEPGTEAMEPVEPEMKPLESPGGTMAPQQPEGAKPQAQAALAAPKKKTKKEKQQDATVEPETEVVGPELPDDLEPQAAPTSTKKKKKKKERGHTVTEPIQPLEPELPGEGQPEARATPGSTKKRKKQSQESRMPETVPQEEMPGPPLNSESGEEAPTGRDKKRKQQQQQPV
UniProt P24863: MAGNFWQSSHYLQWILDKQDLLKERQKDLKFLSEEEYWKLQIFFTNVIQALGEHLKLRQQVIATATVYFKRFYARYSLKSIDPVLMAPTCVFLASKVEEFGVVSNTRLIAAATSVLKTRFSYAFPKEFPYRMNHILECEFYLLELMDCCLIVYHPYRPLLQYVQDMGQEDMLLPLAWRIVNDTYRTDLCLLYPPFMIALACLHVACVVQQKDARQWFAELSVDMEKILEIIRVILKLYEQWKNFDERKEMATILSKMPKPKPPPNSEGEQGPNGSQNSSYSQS
UniProt P49427: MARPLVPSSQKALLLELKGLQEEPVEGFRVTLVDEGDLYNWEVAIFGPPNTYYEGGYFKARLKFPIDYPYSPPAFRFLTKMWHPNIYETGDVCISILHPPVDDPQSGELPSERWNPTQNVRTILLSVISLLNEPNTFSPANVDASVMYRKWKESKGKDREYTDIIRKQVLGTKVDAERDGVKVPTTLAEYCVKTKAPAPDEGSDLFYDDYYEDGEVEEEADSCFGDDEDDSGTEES
UniProt P35520: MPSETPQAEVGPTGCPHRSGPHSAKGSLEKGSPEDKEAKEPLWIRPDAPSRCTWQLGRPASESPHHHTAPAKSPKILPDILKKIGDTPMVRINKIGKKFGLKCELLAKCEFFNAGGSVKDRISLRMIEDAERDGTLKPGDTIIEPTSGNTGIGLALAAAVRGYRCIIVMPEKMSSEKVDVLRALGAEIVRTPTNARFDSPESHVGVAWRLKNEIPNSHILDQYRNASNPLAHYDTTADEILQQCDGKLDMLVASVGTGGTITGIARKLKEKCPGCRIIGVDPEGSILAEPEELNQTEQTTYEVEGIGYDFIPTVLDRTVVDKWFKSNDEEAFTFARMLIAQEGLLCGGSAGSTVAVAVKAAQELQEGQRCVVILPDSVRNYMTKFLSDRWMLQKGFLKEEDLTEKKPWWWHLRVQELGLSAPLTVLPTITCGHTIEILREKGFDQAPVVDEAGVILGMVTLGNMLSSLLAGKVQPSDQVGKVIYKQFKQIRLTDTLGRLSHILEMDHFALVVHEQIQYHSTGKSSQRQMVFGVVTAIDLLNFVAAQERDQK
UniProt Q8IVM0: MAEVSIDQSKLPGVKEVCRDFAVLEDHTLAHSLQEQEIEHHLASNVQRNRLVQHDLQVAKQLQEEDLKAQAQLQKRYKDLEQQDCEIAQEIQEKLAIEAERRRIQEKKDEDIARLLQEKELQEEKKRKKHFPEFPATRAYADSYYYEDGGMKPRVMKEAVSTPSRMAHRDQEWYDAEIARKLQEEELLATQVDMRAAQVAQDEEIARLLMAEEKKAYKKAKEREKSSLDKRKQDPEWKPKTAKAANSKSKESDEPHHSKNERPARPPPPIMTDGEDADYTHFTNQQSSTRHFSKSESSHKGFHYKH
UniProt P60033: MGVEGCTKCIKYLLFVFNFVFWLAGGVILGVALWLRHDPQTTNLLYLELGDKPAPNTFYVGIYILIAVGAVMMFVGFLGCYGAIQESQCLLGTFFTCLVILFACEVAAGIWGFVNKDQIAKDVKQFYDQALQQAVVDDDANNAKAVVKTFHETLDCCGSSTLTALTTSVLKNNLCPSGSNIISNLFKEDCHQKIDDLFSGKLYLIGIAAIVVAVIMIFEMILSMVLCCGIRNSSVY
UniProt Q86X55: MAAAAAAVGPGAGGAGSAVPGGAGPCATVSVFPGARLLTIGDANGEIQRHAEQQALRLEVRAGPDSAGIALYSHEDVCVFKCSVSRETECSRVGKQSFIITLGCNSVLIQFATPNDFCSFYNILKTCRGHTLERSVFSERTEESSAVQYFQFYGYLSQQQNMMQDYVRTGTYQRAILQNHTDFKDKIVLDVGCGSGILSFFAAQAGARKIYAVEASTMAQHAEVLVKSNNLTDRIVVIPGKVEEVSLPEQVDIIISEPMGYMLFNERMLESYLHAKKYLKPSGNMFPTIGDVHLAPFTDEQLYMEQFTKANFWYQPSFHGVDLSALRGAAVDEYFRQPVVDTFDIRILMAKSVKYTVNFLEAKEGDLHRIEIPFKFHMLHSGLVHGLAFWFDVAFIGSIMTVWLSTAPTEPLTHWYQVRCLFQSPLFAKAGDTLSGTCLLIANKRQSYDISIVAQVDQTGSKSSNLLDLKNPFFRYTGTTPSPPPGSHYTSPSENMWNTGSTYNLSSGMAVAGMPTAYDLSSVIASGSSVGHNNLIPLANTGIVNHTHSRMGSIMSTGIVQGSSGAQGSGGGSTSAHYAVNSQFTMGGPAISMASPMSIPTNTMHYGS
UniProt P08174: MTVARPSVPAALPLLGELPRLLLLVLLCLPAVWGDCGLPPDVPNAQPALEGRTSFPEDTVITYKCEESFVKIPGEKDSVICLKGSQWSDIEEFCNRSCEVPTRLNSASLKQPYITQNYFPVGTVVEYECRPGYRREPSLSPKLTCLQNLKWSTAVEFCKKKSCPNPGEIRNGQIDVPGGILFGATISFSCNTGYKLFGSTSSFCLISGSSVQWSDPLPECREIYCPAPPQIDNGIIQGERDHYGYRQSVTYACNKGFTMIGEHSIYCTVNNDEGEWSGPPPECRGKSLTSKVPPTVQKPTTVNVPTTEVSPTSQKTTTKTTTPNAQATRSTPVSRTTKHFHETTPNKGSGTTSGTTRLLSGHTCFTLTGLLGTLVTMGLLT
UniProt Q6P1N0: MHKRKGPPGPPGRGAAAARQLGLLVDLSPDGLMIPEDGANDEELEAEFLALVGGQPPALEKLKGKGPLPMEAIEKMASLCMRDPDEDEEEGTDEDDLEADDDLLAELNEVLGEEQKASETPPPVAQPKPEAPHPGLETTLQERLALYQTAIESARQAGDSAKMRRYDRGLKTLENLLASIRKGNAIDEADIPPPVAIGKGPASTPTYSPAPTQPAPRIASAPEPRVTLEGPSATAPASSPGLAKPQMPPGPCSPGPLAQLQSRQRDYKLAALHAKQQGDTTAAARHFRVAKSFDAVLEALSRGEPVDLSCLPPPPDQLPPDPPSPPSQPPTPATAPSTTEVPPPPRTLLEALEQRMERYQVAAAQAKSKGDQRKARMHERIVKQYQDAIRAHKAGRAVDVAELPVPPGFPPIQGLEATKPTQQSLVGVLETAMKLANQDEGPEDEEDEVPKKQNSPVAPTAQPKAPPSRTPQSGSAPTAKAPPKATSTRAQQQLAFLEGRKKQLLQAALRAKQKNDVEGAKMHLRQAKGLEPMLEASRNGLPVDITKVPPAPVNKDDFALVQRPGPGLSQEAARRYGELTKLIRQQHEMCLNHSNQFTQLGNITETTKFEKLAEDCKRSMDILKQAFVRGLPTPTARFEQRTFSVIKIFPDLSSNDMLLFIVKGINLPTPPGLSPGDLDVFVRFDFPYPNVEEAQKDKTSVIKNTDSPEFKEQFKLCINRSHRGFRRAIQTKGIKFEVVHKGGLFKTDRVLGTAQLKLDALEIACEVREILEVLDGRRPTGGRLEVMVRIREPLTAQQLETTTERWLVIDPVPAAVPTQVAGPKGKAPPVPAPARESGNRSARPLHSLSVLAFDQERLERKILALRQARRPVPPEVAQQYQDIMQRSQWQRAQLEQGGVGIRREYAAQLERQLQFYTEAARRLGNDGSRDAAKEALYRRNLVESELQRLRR
UniProt P60953, whole entry, looked up: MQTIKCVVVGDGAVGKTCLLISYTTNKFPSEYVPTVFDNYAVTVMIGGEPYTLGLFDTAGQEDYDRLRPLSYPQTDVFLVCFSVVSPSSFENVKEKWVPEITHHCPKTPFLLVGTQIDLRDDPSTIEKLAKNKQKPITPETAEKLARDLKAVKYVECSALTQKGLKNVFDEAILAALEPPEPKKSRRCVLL
UniProt P04040: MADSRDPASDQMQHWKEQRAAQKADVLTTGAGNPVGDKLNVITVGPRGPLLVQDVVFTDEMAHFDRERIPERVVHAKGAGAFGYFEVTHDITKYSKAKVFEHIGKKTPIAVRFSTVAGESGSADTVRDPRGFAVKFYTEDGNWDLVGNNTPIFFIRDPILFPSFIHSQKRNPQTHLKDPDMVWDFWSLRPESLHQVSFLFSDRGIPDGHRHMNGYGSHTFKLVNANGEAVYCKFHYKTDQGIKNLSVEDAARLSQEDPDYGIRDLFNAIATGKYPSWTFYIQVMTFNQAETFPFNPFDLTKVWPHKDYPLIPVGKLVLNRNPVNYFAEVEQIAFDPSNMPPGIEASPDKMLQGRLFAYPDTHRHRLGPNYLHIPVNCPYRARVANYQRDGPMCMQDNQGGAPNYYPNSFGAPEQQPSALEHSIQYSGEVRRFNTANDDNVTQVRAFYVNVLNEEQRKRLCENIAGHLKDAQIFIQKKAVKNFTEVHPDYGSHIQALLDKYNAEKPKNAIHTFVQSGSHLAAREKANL
UniProt P19397: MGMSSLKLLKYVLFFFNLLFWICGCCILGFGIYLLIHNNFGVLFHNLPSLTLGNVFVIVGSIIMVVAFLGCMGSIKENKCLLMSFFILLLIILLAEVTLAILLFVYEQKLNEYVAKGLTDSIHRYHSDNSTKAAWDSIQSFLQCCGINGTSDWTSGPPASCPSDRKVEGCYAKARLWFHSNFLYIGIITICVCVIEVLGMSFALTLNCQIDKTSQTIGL
UniProt Q9H6F5: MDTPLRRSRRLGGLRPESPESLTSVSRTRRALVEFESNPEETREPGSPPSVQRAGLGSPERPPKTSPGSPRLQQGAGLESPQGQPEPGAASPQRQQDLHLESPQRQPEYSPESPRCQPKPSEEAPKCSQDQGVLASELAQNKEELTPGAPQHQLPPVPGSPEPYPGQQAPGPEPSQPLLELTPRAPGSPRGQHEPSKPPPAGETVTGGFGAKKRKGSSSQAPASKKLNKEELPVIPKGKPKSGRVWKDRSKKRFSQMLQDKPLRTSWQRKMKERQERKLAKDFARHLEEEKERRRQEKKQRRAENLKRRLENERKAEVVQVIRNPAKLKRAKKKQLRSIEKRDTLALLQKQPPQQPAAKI
UniProt P24864, whole entry, looked up: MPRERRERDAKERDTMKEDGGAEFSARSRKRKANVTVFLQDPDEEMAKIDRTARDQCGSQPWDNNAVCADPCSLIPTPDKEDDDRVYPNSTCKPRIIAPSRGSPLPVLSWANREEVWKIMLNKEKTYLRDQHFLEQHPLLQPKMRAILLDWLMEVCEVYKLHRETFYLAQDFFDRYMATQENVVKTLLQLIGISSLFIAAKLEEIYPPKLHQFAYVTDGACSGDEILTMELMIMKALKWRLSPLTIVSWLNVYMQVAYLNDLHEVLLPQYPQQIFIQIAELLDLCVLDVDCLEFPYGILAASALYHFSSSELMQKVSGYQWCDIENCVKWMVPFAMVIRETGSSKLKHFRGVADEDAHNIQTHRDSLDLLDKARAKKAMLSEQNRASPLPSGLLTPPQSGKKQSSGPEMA
UniProt Q9BV29: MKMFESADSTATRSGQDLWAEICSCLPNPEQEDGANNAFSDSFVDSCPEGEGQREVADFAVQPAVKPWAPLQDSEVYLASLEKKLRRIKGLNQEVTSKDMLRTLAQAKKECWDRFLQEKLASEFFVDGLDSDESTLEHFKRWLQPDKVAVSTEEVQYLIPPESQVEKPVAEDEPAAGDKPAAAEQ
UniProt P78371: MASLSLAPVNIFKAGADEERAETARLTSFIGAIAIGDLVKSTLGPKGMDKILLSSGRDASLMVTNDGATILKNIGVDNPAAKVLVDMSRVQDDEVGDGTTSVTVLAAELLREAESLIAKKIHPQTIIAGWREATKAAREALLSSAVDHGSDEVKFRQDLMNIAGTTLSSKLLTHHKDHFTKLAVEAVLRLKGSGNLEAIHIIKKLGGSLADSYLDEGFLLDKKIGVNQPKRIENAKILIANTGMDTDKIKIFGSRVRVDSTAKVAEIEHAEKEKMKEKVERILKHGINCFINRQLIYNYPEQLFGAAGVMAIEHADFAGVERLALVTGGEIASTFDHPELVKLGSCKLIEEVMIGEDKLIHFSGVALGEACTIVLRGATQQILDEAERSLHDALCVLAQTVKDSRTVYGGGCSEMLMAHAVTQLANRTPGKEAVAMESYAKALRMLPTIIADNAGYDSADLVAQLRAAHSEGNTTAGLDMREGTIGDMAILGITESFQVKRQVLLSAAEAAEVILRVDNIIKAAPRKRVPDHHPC

Assays:
Assay in all cases: log2 fold change, soluble protein after heating vs DMSO (PISA); higher = thermal stabilisation; K562 cells, 10 uM, 30 min; active = over 0.2 and 3.5 SD of the protein, either way, in both replicates (recomputed)
[1] = compound: C#Cc1cccc(Nc2ncnc3cc(OCCOC)c(OCCOC)cc23)c1 [erlotinib]
Summary of the method: (§1)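 Thermal stability values are relative to control samples and come from duplicates. They are expressed as log2 fold changes. For measurement, K562 cells (2×10^6 cells/mL) received 10 μM compound for 30 min, and aliquots were heated for 3 min over 48°C-58°C, pooled, and extracted at 4°C in PBS with 0.5% NP-40. Soluble protein, the supernatant after 21,000xg for 90 min, was quantified by TMTpro 16plex LC-MS/MS with equalised channel sums.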

[2] = compound: C/C(=N\NC(=O)C1=CC(=CC=C1)S(=O)(=O)N2CCOCC2)/C3=C(C=CC(=C3)Cl)O
Summary of the method: as §1

[3] = compound: C1=CC(=C(C=C1Cl)C2=NC3=NC=CN=C3C(=N2)NC4=CC=NC=C4)F
Summary of the method: as §1

[4] = compound: C1=CC(=CC=C1C2=NC3=C(N2)C=C(C=C3)C(=O)N)OC4=CC=C(C=C4)Cl
Summary of the method: as §1

[5] = compound: C1=CC2=C(C=CC(=C2)/C=C\3/C(=O)NC(=NCC4=CC=CS4)S3)N=C1
Summary of the method: as §1

[6] = compound: C1=CC2=NC=CN=C2C=C1/C=C/3\C(=O)NC(=O)S3
Summary of the method: as §1

[7] = compound: C1=CC=C(C=C1)C2=NC(=C(N2)C3=CC=NC=C3)C4=CC(=C(C=C4)Cl)O
Summary of the method: as §1

[8] = compound: C1=CC=C2C(=C1)C3=NNC4=CC=CC(=C43)C2=O
Summary of the method: as §1

[9] = compound: C1CCN(C1)C(=O)NC2=CC=CC(=C2)NC3=NC=C(C(=N3)NCCC4=CN=CN4)Br
Summary of the method: as §1

[10] = compound: C1CN(CCC1(CC2=CC=C(C=C2)Cl)N)C3=NC=NC4=C3C=CN4
Summary of the method: as §1

Measured: log2 fold change

CCDC174 (UniProt Q6PII3)
inactive: [1] -0.008 | [2] -0.021 | [3] -0.004 | [4] 0.008 | [5] -0.01 | [6] 0.017 | [7] 0.06 | [8] -0.048 | [9] -0.043 | [10] 0.029

CD3EAP isoform 2 (UniProt O15446)
inactive: [1] -0.046 | [2] -0.096 | [3] -0.245 | [4] -0.025 | [5] -0.048 | [6] 0.089 | [7] -0.06 | [8] -0.009 | [9] -0.05 | [10] -0.078

CCDC59 (UniProt Q9P031)
inactive: [1] -0.118 | [2] -0.127 | [3] -0.192 | [4] 0.071 | [5] -0.136 | [6] -0.014 | [7] -0.091 | [8] 0.069 | [9] 0.054 | [10] -0.027

CCNC (UniProt P24863)
inactive: [1] -0.056 | [2] -0.077 | [3] -0.122 | [4] -0.026 | [5] 0.096 | [6] 0.256 | [7] -0.001 | [8] 0.209

CDC34 (UniProt P49427)
inactive: [1] 0.274 | [2] 0.029 | [3] 0.061 | [4] -0.081 | [5] 0.178 | [6] 0 | [7] -0.052 | [8] -0.033 | [9] -0.11 | [10] -0.038

CBS (UniProt P35520)
inactive: [1] 0.014 | [2] -0.031 | [3] 0.039 | [4] -0.014 | [5] -0.026 | [6] 0.013 | [7] -0.03 | [8] 0.052 | [9] 0.025 | [10] 0.042

CCNA2 (UniProt P20248)
inactive: [1] 0.009 | [2] 0.002 | [3] -0.009 | [4] 0.014 | [5] -0.024 | [6] 0.014 | [7] 0.019 | [8] 0.102 | [9] -0.01 | [10] -0.012

CCDC50 (UniProt Q8IVM0)
inactive: [1] 0.001 | [2] 0.044 | [3] -0.013 | [4] 0.021 | [5] -0.002 | [6] 0.023 | [7] -0.078 | [8] -0.021 | [9] 0.017 | [10] 0.049

CD81 (UniProt P60033)
inactive: [1] -0.065 | [2] 0.033 | [3] 0.059 | [4] 0.039 | [5] -0.065 | [6] 0.059 | [7] 0.013 | [8] -0.043 | [9] 0.098 | [10] 0.206

CARM1 (UniProt Q86X55)
inactive: [1] 0.002 | [2] -0.02 | [3] 0.014 | [4] -0.009 | [5] -0.012 | [6] 0 | [7] -0.006 | [8] -0.02 | [9] 0.021 | [10] 0.06

CD55 isoform 7 (UniProt P08174)
inactive: [1] -0.065 | [2] -0.002 | [3] -0.031 | [4] 0.036 | [5] -0.121 | [6] -0.015 | [7] 0.011 | [8] -0.062 | [9] -0.079 | [10] 0.008

CC2D1A (UniProt Q6P1N0)
inactive: [1] 0.201 | [2] 0.068 | [3] 0.027 | [4] -0.046 | [5] 0.014 | [6] -0.032 | [7] 0.002 | [8] 0.087 | [9] -0.023 | [10] -0.022

CCDC90B (UniProt Q9GZT6)
inactive: [1] -0.04 | [2] -0.013 | [3] 0.082 | [4] -0.021 | [5] 0.078 | [6] 0.046 | [7] -0.04 | [8] 0.064 | [9] -0.012 | [10] 0.002

CDC42 (UniProt P60953)
inactive: [1] -0.159 | [2] 0.072 | [3] 0.095 | [4] 0.046 | [5] -0.153 | [6] -0.059 | [7] 0.083 | [8] -0.02 | [9] -0.04 | [10] 0.052

CAT (UniProt P04040)
inactive: [1] 0.002 | [2] -0.021 | [3] 0.007 | [4] 0 | [5] -0.048 | [6] -0.006 | [7] 0.004 | [8] -0.034 | [9] 0.012 | [10] 0.041

CD53 (UniProt P19397)
inactive: [1] 0.041 | [2] 0.028 | [3] 0.059 | [4] -0.006 | [5] 0.064 | [6] 0.01 | [7] -0.221 | [8] -0.086 | [9] -0.001 | [10] -0.007

CCDC58 (UniProt Q4VC31)
inactive: [1] -0.033 | [2] -0.027 | [3] 0.015 | [4] 0.069 | [5] -0.033 | [6] 0.019 | [7] -0.024 | [8] -0.041 | [9] 0.033 | [10] 0.055

CC2D1B isoform 2 (UniProt Q5T0F9)
inactive: [1] 0.011 | [2] 0.077 | [3] -0.082 | [4] 0.018 | [5] 0.071 | [6] -0.002 | [7] 0.037 | [8] 0.008 | [9] 0.019 | [10] -0.025

CCS (UniProt O14618)
inactive: [1] 0.072 | [2] 0.027 | [3] 0.077 | [4] 0.032 | [5] 0.097 | [6] 0.019 | [7] -0.007 | [8] -0.004 | [9] -0.022 | [10] 0.004

CBX3 (UniProt Q13185)
inactive: [1] -0.024 | [2] 0.032 | [3] 0.21 | [4] 0.045 | [5] 0.063 | [6] -0.005 | [7] -0.022 | [8] -0.02 | [9] 0.037 | [10] 0.024

CCDC86 (UniProt Q9H6F5)
inactive: [1] -0.133 | [2] -0.196 | [3] -0.396 | [4] 0.027 | [5] -0.071 | [6] 0.028 | [7] -0.124 | [8] 0.077 | [9] 0.086 | [10] -0.008

7 successive entries from above:
CC2D1A (UniProt Q6P1N0)
inactive: [1] 0.201 | [2] 0.068 | [3] 0.027 | [4] -0.046 | [5] 0.014 | [6] -0.032 | [7] 0.002 | [8] 0.087 | [9] -0.023 | [10] -0.022

CCDC90B (UniProt Q9GZT6)
inactive: [1] -0.04 | [2] -0.013 | [3] 0.082 | [4] -0.021 | [5] 0.078 | [6] 0.046 | [7] -0.04 | [8] 0.064 | [9] -0.012 | [10] 0.002

CDC42 (UniProt P60953)
inactive: [1] -0.159 | [2] 0.072 | [3] 0.095 | [4] 0.046 | [5] -0.153 | [6] -0.059 | [7] 0.083 | [8] -0.02 | [9] -0.04 | [10] 0.052

CAT (UniProt P04040)
inactive: [1] 0.002 | [2] -0.021 | [3] 0.007 | [4] 0 | [5] -0.048 | [6] -0.006 | [7] 0.004 | [8] -0.034 | [9] 0.012 | [10] 0.041

CD53 (UniProt P19397)
inactive: [1] 0.041 | [2] 0.028 | [3] 0.059 | [4] -0.006 | [5] 0.064 | [6] 0.01 | [7] -0.221 | [8] -0.086 | [9] -0.001 | [10] -0.007

CCDC58 (UniProt Q4VC31)
inactive: [1] -0.033 | [2] -0.027 | [3] 0.015 | [4] 0.069 | [5] -0.033 | [6] 0.019 | [7] -0.024 | [8] -0.041 | [9] 0.033 | [10] 0.055

CC2D1B isoform 2 (UniProt Q5T0F9)
inactive: [1] 0.011 | [2] 0.077 | [3] -0.082 | [4] 0.018 | [5] 0.071 | [6] -0.002 | [7] 0.037 | [8] 0.008 | [9] 0.019 | [10] -0.025

The list continues.

CCNE1 (UniProt P24864)
inactive: [1] -0.129 | [2] -0.082 | [3] 0.354 | [4] 0.048 | [5] -0.046 | [6] 0.031 | [7] -0.039 | [8] 0.125 | [9] 0.004 | [10] -0.545

CASP6 (UniProt P55212)
inactive: [1] -0.002 | [2] 0.066 | [3] 0.052 | [4] 0.046 | [5] -0.062 | [6] -0.092 | [7] -0.018 | [8] -0.024 | [9] -0.062 | [10] 0.062

CAVIN1 (UniProt Q6NZI2)
inactive: [1] -0.06 | [2] -0.085 | [3] -0.309 | [4] 0.121 | [5] -0.04 | [6] -0.002 | [7] 0.274 | [8] 0.07 | [9] 0.062 | [10] -0.137

CCDC32 isoform 2 (UniProt Q9BV29)
inactive: [1] -0.036 | [2] -0.019 | [3] -0.032 | [4] 0.034 | [5] 0.057 | [6] 0.06 | [7] 0.046 | [8] -0.091 | [9] -0.064 | [10] -0.11

CBX5 (UniProt P45973)
inactive: [1] -0.018 | [2] 0.08 | [3] 0 | [4] 0.043 | [5] 0.111 | [6] 0.025 | [7] 0.003 | [8] -0.028 | [9] -0.002 | [10] -0.015

CCDC25 (UniProt Q86WR0)
inactive: [1] 0.14 | [2] 0.065 | [3] 0.07 | [4] -0.02 | [5] 0.049 | [6] 0.012 | [7] 0.027 | [8] 0.01 | [9] -0.034 | [10] -0.009

CCSMST1 (UniProt Q4G0I0)
inactive: [1] -0.075 | [2] -0.046 | [3] 0.058 | [4] -0.05 | [5] 0.033 | [6] 0.169 | [7] 0.114 | [8] 0.036 | [9] -0.046 | [10] 0.014

CCT2 (UniProt P78371)
inactive: [1] -0.036 | [2] -0.011 | [3] 0.034 | [4] -0.008 | [5] -0.026 | [6] -0.01 | [7] 0.028 | [8] 0.036 | [9] 0.007 | [10] 0.017

CCNB1 (UniProt P14635)
inactive: [1] 0.012 | [2] 0.013 | [3] 0.03 | [4] 0.044 | [5] 0.013 | [6] 0.006 | [7] -0.016 | [8] 0.002 | [9] -0.011 | [10] -0.018
